Measurements: PubChem BioAssay AID651640 (Broad Institute, 2012)
Hit rate of the full screen: of about 350,000 compounds, about 6,000 (1.7%) were called active. Inconclusive means that the source gave no clear call. Such entries were picked first, then a sample of the others. Cut-off read from the data, not from the text of the source: active = CPE inhibition above about 20% (passing the limit was not always enough); inconclusive = no clear call, values can overlap the other calls; tested in BHK-21 cells.

Assay: protection of cells from dengue 2 killing – plate reader, single concentration, primary screen (AID 651640);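 note: 0% = median of neutral control wells and 100% = median of positive control wells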
Details: DENV2-infected cells, cytopathic effect rescue, at 9.99 µM, hits give high values

Question: Which CPE inhibition does the source give for `C[C@@H]1CN([C@H](C)CO)C(=O)c2cc(NS(C)(=O)=O)ccc2O[C@@H](C)CCCCO[C@H]1CN(C)Cc1ccc(C(=O)O)cc1` here?
Answer: Its CPE inhibition is inactive: 8.42%.

Question: Which CPE inhibition does the source give for `CCNC(=O)C[C@@H]1C=C[C@H](NC(=O)C2CC2)[C@H](CO)O1` here?
Answer: The CPE inhibition was inactive: 0.245%.

Question: With `C/C=C/c1ccc2c(c1)O[C@H](CN(C)S(=O)(=O)c1ccc(C)cc1)[C@H](C)CN([C@H](C)CO)S2(=O)=O` as the molecule, how does the CPE inhibition read?
Answer: The CPE inhibition was active: 20%.

Question: With `COc1ccc(CC(=O)Nc2ccc(N3CCCC3)c(C)c2)cc1` as the molecule, how does the CPE inhibition read?
Answer: Its CPE inhibition is inconclusive: 28.1%.

Question: For `Cc1ccc(-c2csc3ncnc(-n4nnc5ccccc54)c23)cc1C`, which CPE inhibition is on record?
Answer: Its CPE inhibition is inconclusive: 42.2%.

Question: For `O=C(NC1Cc2ccccc2C1)[C@H]1[C@H](CO)[C@H]2Cn3c(ccc(-c4ccccc4)c3=O)[C@@H]1N2`, which CPE inhibition is on record?
Answer: The CPE inhibition was inconclusive: 62.4%.

Question: Which CPE inhibition does the source give for `CCN(CCCNC(=O)Cn1ncc2c([nH]c3ccccc32)c1=O)Cc1ccccc1` here?
Answer: The CPE inhibition was inconclusive: 32.9%.

Question: Which CPE inhibition does the source give for `COc1ccc([C@@H]2[C@@H](C)N(c3ccccc3)c3ccccc3C(=O)N2Cc2ccccc2)cc1` here?
Answer: The CPE inhibition was active: 85.8%.

Question: With `O=C(c1ccncc1)N1C[C@H]2[C@@H](c3ccccc31)[C@@H](CO)N2C(=O)c1ccncc1` as the molecule, how does the CPE inhibition read?
Answer: The CPE inhibition was inconclusive: 21.3%.

Question: Which CPE inhibition does the source give for `O=C1NC(=O)/C(=C/c2cc3c(cc2Br)OCO3)S1` here?
Answer: The CPE inhibition was active: 21.7%.

Question: For `CC1CN(CCOCCSc2ccc(Cl)cc2)CC(C)O1` (stereo unspecified), which CPE inhibition is on record?
Answer: The CPE inhibition was inactive: 10%.

Question: Which CPE inhibition does the source give for `CCn1c(SCC(=O)NC2CC2)nnc1-c1ccccc1OC` here?
Answer: Its CPE inhibition is inconclusive: 22.2%.

Question: Which CPE inhibition does the source give for `C[C@@H]1CN([C@@H](C)CO)C(=O)c2cc(NS(=O)(=O)c3ccc(Cl)cc3)ccc2O[C@@H]1CN(C)S(=O)(=O)c1ccc(Cl)cc1` here?
Answer: Its CPE inhibition is inconclusive: 22.9%.

Question: With `C[C@H]1CN([C@@H](C)CO)C(=O)c2cc(NC(=O)Nc3ccc4c(c3)OCO4)ccc2O[C@@H]1CN(C)CC1CCCCC1` as the molecule, how does the CPE inhibition read?
Answer: The CPE inhibition was inconclusive: 28.1%.

Question: For `O=C(C[C@@H]1CC[C@H]2[C@@H](COC[C@@H](O)CN2S(=O)(=O)c2ccc(Cl)cc2)O1)NCCN1CCCC1`, which CPE inhibition is on record?
Answer: The CPE inhibition was active: 23.1%.

Question: With `COc1ccc(NC(=O)N(C)C[C@H]2Oc3c(NC(=O)C4CCCCC4)cccc3C(=O)N([C@H](C)CO)C[C@H]2C)cc1` as the molecule, how does the CPE inhibition read?
Answer: Its CPE inhibition is inconclusive: 21.7%.

Question: For `O=C(Cn1ccc(NC(=O)OCc2ccccc2)nc1=O)NCCCN1CCCC1=O`, which CPE inhibition is on record?
Answer: Its CPE inhibition is active: 114%.

Question: Which CPE inhibition does the source give for `O=C(C[C@@H]1C[C@@H]2c3cc(NC(=O)Cc4ccncc4)ccc3O[C@@H]2[C@H](CO)O1)NCc1cccnc1` here?
Answer: The CPE inhibition was inconclusive: 57.1%.

Question: For `O=C(NC1CC1)c1cccc(NC(=O)c2cc(S(=O)(=O)N3CCOCC3)ccc2Cl)c1`, which CPE inhibition is on record?
Answer: The CPE inhibition was active: 93.8%.

Question: Which CPE inhibition does the source give for `CC(=O)Nc1ccc(NC(=O)C(C)OC(=O)c2oc3ccccc3c2C)cc1` (stereo unspecified) here?
Answer: The CPE inhibition was inconclusive: 60.9%.

Question: For `NC(=O)C1=C[C@@H](c2ccc(Br)cc2)C[C@@H](OCCCCO)O1`, which CPE inhibition is on record?
Answer: The CPE inhibition was inconclusive: 23%.

Question: For `CO[C@@H]1CN(C)C(=O)c2cc(NC(=O)C3CC3)ccc2OC[C@H](C)N(C(=O)c2ccccc2)C[C@@H]1C`, which CPE inhibition is on record?
Answer: Its CPE inhibition is inactive: 1.46%.

Question: With `N#C[C@H]1[C@@H](c2ccccc2C2=CCCCC2)[C@@H](CO)N1C(=O)c1cccc(F)c1` as the molecule, how does the CPE inhibition read?
Answer: Its CPE inhibition is inactive: 3.85%.

Question: Which CPE inhibition does the source give for `COc1cc(NC(=O)C2CC2)c(OC)cc1NC(=O)CCC(=O)NC1CCN(Cc2ccccc2)CC1` here?
Answer: Its CPE inhibition is inconclusive: 42.9%.

Question: With `CNC[C@H]1Oc2ccc(NC(=O)c3ccncc3)cc2CC(=O)N([C@H](C)CO)C[C@@H]1C` as the molecule, how does the CPE inhibition read?
Answer: The CPE inhibition was active: 64.1%.

Question: For `CCCN(C)C[C@@H]1Oc2ncc(C#Cc3ccc(OC)cc3)cc2C(=O)N([C@H](C)CO)C[C@@H]1C`, which CPE inhibition is on record?
Answer: Its CPE inhibition is inconclusive: 51.6%.

Question: Which CPE inhibition does the source give for `CC(C)CN(C(=O)C1COc2ccccc2O1)c1c(N)n(CC(C)C)c(=O)[nH]c1=O` (stereo unspecified) here?
Answer: Its CPE inhibition is inconclusive: 23.8%.

Question: For `C[C@@H]1CN([C@@H](C)CO)C(=O)c2cc(NC(=O)C3CC3)ccc2O[C@H]1CN(C)Cc1ccc(Oc2ccccc2)cc1`, which CPE inhibition is on record?
Answer: Its CPE inhibition is active: 33%.

Question: With `CCOc1ccc2nc(N/C(N)=N/C(=S)Nc3ccc(C)c(C)c3)nc(C)c2c1` as the molecule, how does the CPE inhibition read?
Answer: The CPE inhibition was active: 108%.

Question: For `CO[C@@H]1CN(C)C(=O)c2cc(NC(C)=O)ccc2OC[C@H](C)N(C(=O)C2CCOCC2)C[C@H]1C`, which CPE inhibition is on record?
Answer: The CPE inhibition was inactive: -1.84%.

Question: With `CC(N=C(NC#N)Nc1ccncc1)C(C)(C)C` (stereo unspecified) as the molecule, how does the CPE inhibition read?
Answer: The CPE inhibition was inconclusive: 31.3%.

Question: With `CC(=O)N1CCN(C(=O)c2ccc(S(=O)(=O)Nc3ccccc3Cl)cc2)CC1` as the molecule, how does the CPE inhibition read?
Answer: Its CPE inhibition is inconclusive: 36.2%.

Question: Which CPE inhibition does the source give for `COC(CNS(=O)(=O)c1ccc(S(=O)(=O)NC2CC2)cc1)OC` here?
Answer: Its CPE inhibition is inconclusive: 40.5%.

Question: Which CPE inhibition does the source give for `CCc1cnc(N2[C@H](CO)[C@H](c3ccc(C4=CCCCC4)cc3)[C@@H]2C#N)s1` here?
Answer: Its CPE inhibition is active: 28.8%.

Question: Which CPE inhibition does the source give for `N#Cc1ccc(N[C@@H]2CCN3C(=O)c4ccccc4[C@@H]3C[C@H]2O)cc1` here?
Answer: The CPE inhibition was inconclusive: 35.8%.

Question: For `COCCNc1nc(Oc2cccc(NC(C)=O)c2)c2sc(-c3ccccc3)cc2n1`, which CPE inhibition is on record?
Answer: The CPE inhibition was inconclusive: 44.1%.

Question: With `COCC(=O)N1CCC(Oc2ccc(C(=O)NC3CCOC(C)(C)C3)cc2)CC1` (stereo unspecified) as the molecule, how does the CPE inhibition read?
Answer: Its CPE inhibition is inconclusive: 24.1%.

Question: For `C[C@H](CO)N1C[C@H](C)[C@@H](CN(C)C(=O)Nc2ccccc2F)Oc2ncc(Br)cc2C1=O`, which CPE inhibition is on record?
Answer: The CPE inhibition was inconclusive: 36.5%.

Question: For `C[C@@H]1CN([C@H](C)CO)C(=O)c2cc(C#CC3CCCCC3)cnc2O[C@@H]1CN(C)S(=O)(=O)c1ccc(F)cc1`, which CPE inhibition is on record?
Answer: Its CPE inhibition is inconclusive: 48.9%.

Question: For `C[C@@H]1CN([C@@H](C)CO)C(=O)c2cc(C#CC3CCCC3)cnc2O[C@H]1CN(C)C(=O)Nc1ccccc1`, which CPE inhibition is on record?
Answer: Its CPE inhibition is inconclusive: 26.9%.

Question: Which CPE inhibition does the source give for `N#C[C@H]1N[C@H](CO)[C@H]1c1ccc(C#Cc2ccc(F)cc2)cc1` here?
Answer: Its CPE inhibition is active: 55.4%.

Question: Which CPE inhibition does the source give for `C/C=C/c1ccc([C@@H]2[C@@H](CO)N(C(C)=O)[C@@H]2CN(C)S(C)(=O)=O)cc1` here?
Answer: The CPE inhibition was inconclusive: -5.62%.

Question: With `CS(=O)(=O)N1CCCC(C(=O)Nc2c(F)cccc2F)C1` (stereo unspecified) as the molecule, how does the CPE inhibition read?
Answer: The CPE inhibition was inconclusive: 28.5%.

Question: For `CS(=O)(=O)N(CCc1ccccc1)CC(=O)N1CCCCCC1`, which CPE inhibition is on record?
Answer: The CPE inhibition was inactive: 2.06%.

Question: For `CC(=O)N1CSCC1C(=O)NNS(=O)(=O)c1cccc(C(F)(F)F)c1` (stereo unspecified), which CPE inhibition is on record?
Answer: The CPE inhibition was inconclusive: 24.1%.

Question: With `Cc1ccccc1-c1cccc([C@@H]2C[C@H]3[C@H](CON3C)CN2Cc2ccccc2)c1` as the molecule, how does the CPE inhibition read?
Answer: The CPE inhibition was inactive: 7.83%.
